The values below come from doi:10.1101/2023.11.07.565989.

Chains of the proteins cited; added tags and fusions are not shown. Residues count along the entry.
UniProt Q96CB9, residues 26-384: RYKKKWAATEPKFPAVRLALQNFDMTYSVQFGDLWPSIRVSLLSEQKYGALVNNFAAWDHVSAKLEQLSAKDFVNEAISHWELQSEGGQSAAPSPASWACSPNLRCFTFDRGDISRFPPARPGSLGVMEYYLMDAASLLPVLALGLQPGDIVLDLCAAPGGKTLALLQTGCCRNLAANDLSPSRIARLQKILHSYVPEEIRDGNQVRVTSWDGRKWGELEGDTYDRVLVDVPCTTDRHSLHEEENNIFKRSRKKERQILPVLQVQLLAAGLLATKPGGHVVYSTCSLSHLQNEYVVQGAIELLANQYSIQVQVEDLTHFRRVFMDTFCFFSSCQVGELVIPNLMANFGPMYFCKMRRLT

Results are given in words; binding and its absence hold for the method and conditions named. Some entries that bind do so weakly or less than the wild type.

This assay addresses T1, RNA-binding protein MTERF4 (human (endogenous in HEK293-6E)) (UniProt Q7Z6M4).
T1 sequence: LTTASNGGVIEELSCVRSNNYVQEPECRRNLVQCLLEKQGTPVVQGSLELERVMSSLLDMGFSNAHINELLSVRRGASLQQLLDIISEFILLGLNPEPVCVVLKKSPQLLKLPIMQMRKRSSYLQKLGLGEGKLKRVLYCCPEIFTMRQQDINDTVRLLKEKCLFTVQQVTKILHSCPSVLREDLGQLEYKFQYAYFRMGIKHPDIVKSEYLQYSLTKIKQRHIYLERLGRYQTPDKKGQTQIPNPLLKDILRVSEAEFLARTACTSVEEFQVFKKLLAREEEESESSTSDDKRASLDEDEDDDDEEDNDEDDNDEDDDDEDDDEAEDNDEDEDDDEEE
Put plainly: cryo-EM structure.

In the case of “methyltransferase NSUN4 (from UniProt Q96CB9 26-384)”, the binding entry is “binds”.
